Reference: article PMC5428229
These are yes or no findings as the source states them, for the method shown. In cells and extracts the contact can be indirect. Some binding calls cover weakened binding; strength is not graded here.

By UniProt entry, the sequences of proteins in these tests, tags left out.
UniProt Q96D31: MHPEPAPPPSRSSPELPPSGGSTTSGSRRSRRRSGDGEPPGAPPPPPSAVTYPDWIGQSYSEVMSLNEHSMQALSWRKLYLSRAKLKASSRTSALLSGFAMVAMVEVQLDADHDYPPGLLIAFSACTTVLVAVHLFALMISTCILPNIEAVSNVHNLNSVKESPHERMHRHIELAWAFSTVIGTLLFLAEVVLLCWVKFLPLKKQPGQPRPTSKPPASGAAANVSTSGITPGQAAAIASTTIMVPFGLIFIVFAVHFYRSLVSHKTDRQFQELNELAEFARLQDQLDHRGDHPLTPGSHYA
UniProt Q14247: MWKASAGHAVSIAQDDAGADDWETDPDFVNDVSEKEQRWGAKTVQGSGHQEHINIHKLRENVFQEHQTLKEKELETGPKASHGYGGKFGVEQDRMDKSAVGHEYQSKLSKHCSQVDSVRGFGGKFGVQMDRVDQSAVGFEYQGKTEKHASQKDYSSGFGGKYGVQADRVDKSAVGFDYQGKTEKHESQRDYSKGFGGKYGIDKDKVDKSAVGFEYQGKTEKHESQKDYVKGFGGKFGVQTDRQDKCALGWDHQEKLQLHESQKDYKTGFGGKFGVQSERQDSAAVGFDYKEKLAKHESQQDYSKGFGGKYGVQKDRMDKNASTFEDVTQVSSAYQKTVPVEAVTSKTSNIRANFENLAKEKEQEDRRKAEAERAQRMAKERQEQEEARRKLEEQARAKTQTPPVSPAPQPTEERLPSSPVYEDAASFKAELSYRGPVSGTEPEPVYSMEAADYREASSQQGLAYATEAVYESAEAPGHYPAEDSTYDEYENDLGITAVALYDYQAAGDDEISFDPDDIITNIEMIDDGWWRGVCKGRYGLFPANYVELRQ

Columns and labels:
[1] = biological target: ORAI1-GFP (human) (UniProt Q96D31); experiment: co-IP; GFP-Trap agarose beads (5 μl) added to 2.5 mg clarified lysate of U2OS cells transiently expressing GFP or ORAI1-GFP, 1 h at 4 °C; washed with lysis buffer containing 0.15 M NaCl and 50 mM Tris-HCl, 0.1 mM EGTA, pH 7.5; endogenous CTTN detected by immunoblot
[2] = biological target: endogenous ORAI1 (human (endogenous in U2OS)) (UniProt Q96D31); experiment: co-IP; endogenous ORAI1 immunoprecipitated from 0.5 mg clarified U2OS lysate with anti-ORAI1 antibody covalently conjugated to agarose beads, 1 h at 4 °C; washed with lysis buffer containing 0.15 M NaCl and 50 mM Tris-HCl, 0.1 mM EGTA, pH 7.5; CTTN detected by immunoblot; preimmune serum and agarose beads as negative control

- binding [1]: binds
- binding [2]: binds
Substance: endogenous cortactin (CTTN) (from UniProt Q14247 1-550)
